# Tested on: Candida albicans
# Experiment: Antimicrobial activity, broth microdilution MIC
# Type: cell-based
# Conditions: tested 256 to 0.5 µg mL^−1, 24 h, '-' not defined, no MIC in tested range, read-out: MIC C. albicans
compound,measurement,value
"C[C@@H]1[C@H](O)[C@@H](C)/C=C/C=C/C=C/C=C/C=C/C=C/C=C/[C@H](O[C@@H]2O[C@H](C)[C@@H](O)[C@H](N)[C@@H]2O)C[C@@H]2O[C@](O)(C[C@@H](O)C[C@@H](O)[C@H](O)CC[C@@H](O)C[C@@H](O)CC(=O)O[C@H]1C)C[C@H](O)[C@H]2C(=O)O [Amphotericin B, reference compound]",MIC,1 µg/mL

# Source: PMC8618934, “Synthesis, Crystal Structure, and Biological Evaluation of Novel 5-Hydroxymethylpyrimidines” (Materials, 2021)
